According to PubChem BioAssay AID1487 (National Center for Advancing Translational Sciences (NCATS), 2009):
Some of the results follow. Shown are side measurements of this screen, not its main read-out; they come without a call. Compounds called inactive in the main read-out are mostly missing here. The note in brackets gives the kind of curve behind each potency; many fits are weak.

Test: qHTS Assay for Modulators of Lamin A Splicing
Conditions: HeLa LMNA splicing GFP/RFP minigene ratio, 48 h
Procedure, shortened: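 S3 HeLa cells stably expressing lamin A-EGFP splicing minigene plus DsRed2, 600 cells/well, 48 h compound exposure at 37C. Laser-scanning cytometry; analysed as GFP (500-530 nm)/RFP (575-640 nm) total intensity ratio; 0.5% DMSO vehicle.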

[1] = measured here: GFP splicing reporter channel
[2] = measured here: RFP viability control channel

Compound | AC50 [1] | AC50 [2]
Cc1cc2c(cc(C(=O)OCC(=O)NCc3ccco3)n2C)s1 | 15.8 µM [falling, single point] | 17.8 µM [falling, single point]
CC(C)(C)C(=O)Nc1nc(-c2ccc3c(c2)OCO3)cs1 |  | 31.6 µM [rising, single point]
O=C(CN1C(=O)CCSc2ccccc21)Nc1cccc(F)c1 |  | 14.1 µM [rising, single point]
CN1CCC(N(C)C(=S)NCCc2ccccc2)CC1 | 0.0141 µM [rising, full curve, poor fit] | 0.794 µM [falling, partial curve, poor fit]
Cc1ccc(-c2csc3ncnc(N4CCc5ccccc5C4)c23)cc1 |  | 5.62 µM [rising, partial curve, poor fit]
COc1cnc(-c2ccccn2)[nH]c1=O | 3.16 µM [rising, full curve, poor fit] | 0.794 µM [rising, full curve]
FC(F)(F)c1ccccc1-c1cc(NCc2ccccc2)ncn1 | 5.01 µM [falling, partial curve] | 
N#Cc1cc([N+](=O)[O-])ccc1Oc1cccc(/C=N/NC(=O)c2cccc(Cl)c2)c1 |  | 15.8 µM [rising, single point]
O=C(c1ccco1)N1N=C(c2ccc(Br)cc2)CC1(O)C(F)(F)F (stereo not given) | 5.62 µM [falling, partial curve, poor fit] | 
Cc1ccc(CN2CCN(Cc3c(C)nn(C(C)C)c3C)CC2CCO)o1 (stereo not given) | 22.4 µM [falling, single point] | 
CCOC(=O)C1CCN(c2ncnc3c2oc2ccc(Cl)cc23)CC1 | 11.2 µM [rising, partial curve, poor fit] | 
O=S1(=O)C=C(Sc2nnc(-c3ccccc3)o2)c2ccccc21 |  | 5.62 µM [rising, single point]
O=C(NCC1CCCO1)/C(=C\c1cccc([N+](=O)[O-])c1)NC(=O)c1ccccc1 (stereo not given) | 0.794 µM [rising, partial curve, poor fit] | 0.0316 µM [rising, full curve, poor fit]
CC(=O)Cc1nsc(NC(=O)c2ccc(COc3ccc(C)cc3)o2)n1 |  | 35.5 µM [rising, single point]
CC(C)CCNc1nc(N)c([N+](=O)[O-])c(NCC2CCCO2)n1 (stereo not given) |  | 15.8 µM [rising, single point]
C/C(=N\OCC(=O)Nc1ccccc1Br)c1cccs1 |  | 0.00891 µM [rising, full curve, poor fit]
Cc1ccc(OCCNS(=O)(=O)c2ccc(N3CCCC3=O)cc2)cc1 |  | 12.6 µM [rising, partial curve]
O=C(NCCNCc1ccccn1)c1ccco1 |  | 3.16 µM [falling, full curve, poor fit]
CC(NC(=O)c1ccccc1O)c1ccccc1 (stereo not given) |  | 14.1 µM [rising, single point]

Compound | AC50 [1] | AC50 [2]
C=CCNC(=S)NCC1COc2ccccc2O1 (stereo not given) | 17.8 µM [rising, single point] | 
COc1ccc(-c2nn(-c3cccc(F)c3)c3c2cnc2cc(OC)c(OC)cc23)cc1 | 5.62 µM [falling, single point] | 
Nc1ccc(S(=O)(=O)Nc2ccnn2-c2ccccc2)cc1 | 0.2 µM [falling, single point] | 7.94 µM [falling, single point]
Cc1[nH]n2c(=O)cc(C(C)(C)C)nc2c1-c1ccccc1 |  | 1 µM [rising, full curve]
COc1ccc(C(=O)N/N=C/c2ccc(OC)c(CSc3ccccn3)c2)cc1 |  | 15.8 µM [rising, single point]
COC(=O)C1CCN(S(=O)(=O)c2cc3c4c(c2)CC(=O)N4CCC3)CC1 |  | 6.31 µM [falling, partial curve, poor fit]
NS(=O)(=O)c1ccc(NC(=O)CSc2nc3ccccc3n2-c2ccccc2)cc1 |  | 20 µM [rising, partial curve, poor fit]
COC(=O)c1ccc(-c2ccco2)n1Cc1nc(-c2ccc(OC)c(OC)c2)oc1C |  | 22.4 µM [rising, single point]
CC(C)(C)N(Cc1ccccc1)C(=O)CSc1nnc(CNc2ccc(F)cc2)o1 |  | 15.8 µM [rising, single point]
O=S(=O)(c1ccc(N2CCCC2)cc1)C(F)(F)F |  | 35.5 µM [rising, single point]
Cc1ccc(CN2C(=O)c3ccccc3Sc3ccc(C(=O)OCc4ccco4)cc32)cc1 |  | 0.447 µM [rising, full curve]
Cc1nc2c(ccc3nc(NC(=O)Cc4cccc5ccccc45)sc32)s1 | 20 µM [rising, single point] | 25.1 µM [rising, partial curve]
Cc1cc(C(=O)Nc2c(C)nc3ccccn3c2=O)ccc1[N+](=O)[O-] |  | 0.562 µM [falling, partial curve, poor fit]
O=C(OC1Cc2c(O)cc(O)cc2OC1c1cc(O)c(O)c(O)c1-c1c(C2Oc3cc(O)cc(O)c3CC2O)cc(O)c(O)c1O)c1cc(O)c(O)c(O)c1 (stereo not given) |  | 14.1 µM [rising, single point]
COc1ccccc1NC(=O)Cn1nnc(-c2ccccc2NC(=O)c2ccco2)n1 |  | 5.62 µM [rising, single point]
Cc1ccc(SC(CC(=O)c2ccc(C)cc2)C(=O)O)cc1 (stereo not given) | 15.8 µM [falling, single point] | 
COc1ccc(NC(=O)c2cncc(Br)c2)cc1S(=O)(=O)N1CCCCC1 |  | 35.5 µM [rising, single point]
CC(=O)c1c(C)n(-c2ccc(N(C)C)cc2)c2ccc(OCC(N)=O)cc12 | 22.4 µM [rising, single point] | 11.2 µM [rising, partial curve]
COC(=O)CSc1ccc2nnc(-c3ccc(OC)c(OC)c3)n2n1 |  | 15.8 µM [rising, partial curve, poor fit]

An excerpt of these results, as comma-separated lines:
Compound,AC50 [1],AC50 [2]
C=CCNC(=S)NCC1COc2ccccc2O1 (stereo not given),"17.8 µM [rising, single point]",
COc1ccc(-c2nn(-c3cccc(F)c3)c3c2cnc2cc(OC)c(OC)cc23)cc1,"5.62 µM [falling, single point]",
